Results deposited as PubChem BioAssay AID652272 (Drosophila RNAi Screening Center, 2013).
Aim: 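Genome-wide knock-down search for components of Hedgehog signalling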 (primary screen). Cells: Drosophila clone 8 (Cl8) cells. Reagent: long dsRNA against Drosophila genes. Read-out: 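Firefly light from a Hedgehog-responsive ptc promoter reporter and Renilla reference light, both read on a plate reader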. Reading the numbers: firefly Hh reporter signal: higher = more ptc reporter light; Renilla reference signal: higher = more Renilla control light. Call rule: 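Hit when the z-score averaged over two replicates is under -2 or over +3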. Calls: active = hit: reporter lowered or raised; inactive = not a hit.
In all, the deposit lists about 21,000 reagents; this is a random part of those that have a named target and a result. In the full data, 503 (2.4%) got an active call. 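Raw plate light values, not normalised; calls rest on replicate z-scores that were not deposited; hits include reporter decreases as well as increases.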 Reagent sequences are not shown. Not stated in the record: the amount of reagent, the time to read-out.

gene knocked down	amplicon	firefly Hh reporter signal, replicate 1	firefly Hh reporter signal, replicate 2	firefly Hh reporter signal, replicate 3	Renilla reference signal, replicate 1	Renilla reference signal, replicate 2	Call
mRpL22 (mitochondrial ribosomal protein L22)	DRSC19915	70680	1.91e5		2592	7462	inactive
Pkn (Protein kinase N)	DRSC06809	59660	46445		688	1360	inactive
Pkn (Protein kinase N)	DRSC06810	1.52e5	61917		4178	5842	inactive
Eato (Engulfment ABC Transporter in the ovary)	DRSC01891	1.25e5	1.26e5		4743	4976	inactive
Eato (Engulfment ABC Transporter in the ovary)	DRSC03061	74867	37863		2145	3385	inactive
CG33109	DRSC16533	1.09e5	83248		2032	2010	inactive
pigeon	DRSC03565	62080	35765		2896	1804	inactive
Nos (Nitric oxide synthase)	DRSC03381	84969	86136		3613	3664	inactive
PGRP-SB2 (Peptidoglycan recognition protein SB2)	DRSC11092	1.50e5			1911	3926	inactive
CG7840	DRSC03075	1.13e5	1.24e5		4308	4679	inactive
NimC3 (Nimrod C3)	DRSC03556	1.77e5	81943		4545	7931	inactive
Or7a (Odorant receptor 7a)	DRSC18691	73097	4.17e5		2749	13797	inactive
ave (aveugle)	DRSC05502	2.01e5	3.60e5		4769	13276	inactive
elg1 (enhanced level of genomic instability 1)	DRSC10229	39929	58864		1893	2631	inactive
CG17549	DRSC02625	1.12e5	82410		5584	3797	inactive
Best4 (Bestrophin 4)	DRSC10792	93992			1589	2396	inactive
CG34458	DRSC06925	1.04e5	55414		3123	4205	inactive
Atg4a (Autophagy-related 4a)	DRSC00656	98709	65432		3992	2668	inactive
CG10469	DRSC09729	45943	37709		4922	2713	inactive
CG31211	DRSC14953	1.97e5	5.20e5	1.16e5	7069	31843	inactive
CG31211	DRSC15344	93819	1.14e5		3245	3904	inactive
Taf2 (TBP-associated factor 2)	DRSC11298	1.11e5	58627		4550	1829	inactive
mei-P22 (meiotic P22)	DRSC11366	82356	45690		10809	3811	inactive

As entered above:
Under “Call”, CG10469 [DRSC09729] has inactive
Under “firefly Hh reporter signal, replicate 1”, ave (aveugle) [DRSC05502] has 2.01e5
Result for CG31211 [DRSC15344] under “Renilla reference signal, replicate 2”: 3904
For “Renilla reference signal, replicate 2”, Eato (Engulfment ABC Transporter in the ovary) [DRSC01891] reads 4976
